From PubChem BioAssay AID540256 (National Center for Advancing Translational Sciences (NCATS), 2011)
The campaign covered roughly 300,000 compounds. About 3,700 (1.2%) were called active. This list was built around the results that the source calls inconclusive (neither active nor inactive); the mix of calls is not that of the screen. The call rests on the fitted dose curve; tested in HEK293 cells. Potencies beside an inconclusive call are fits to weak or partial responses and may not hold up.

test: qHTS for Inhibitors of binding or entry into cells for Lassa Virus; conditions: Lassa virus pseudotype entry inhibition, cell reporter; series mostly up to 37.9 µM; further: nearly all actives have a fitted effect of over 50% in size
Potency means the concentration at half of the fitted maximal effect.

SMILES	Potency
Cc1cc(NC(=O)c2sc(Nc3ccc(F)c(Cl)c3)nc2N)no1	inconclusive: 35.5 µM [inhibitor, single point]
Cc1ccc(-n2nnnc2-c2cnn(-c3ccc(F)cc3)c2C(F)(F)F)cc1	active: 14.6 µM
CCCOc1ccc(CNC(=O)c2ccc(C)c(-n3c(C)nc4cccnc43)c2)cc1	inconclusive: 1.12 µM [inhibitor, full curve]
CCn1c(Cc2cccs2)nnc1SCC(=O)Nc1ccc(OC)c(OC)c1	inactive
CCOC(=O)c1c(C)n(-c2ccccc2)c2ccc(OC(=O)c3cccc(C)c3)cc12	inactive
Cc1cccc(C)c1NC(=S)/C(=C(\[O-])c1cccs1)[n+]1ccccc1	inactive
CCN1c2ccccc2-c2nc(SCC(=O)NCc3ccc(Cl)cc3)ncc2S1(=O)=O	inconclusive: 7.94 µM [inhibitor, partial curve, poor fit]
COc1ccc(S(=O)(=O)N(Cc2cccs2)C2CCCC2)cc1	inconclusive: 15.8 µM [inhibitor, partial curve, poor fit]
CCn1cc(C(=O)N2CCc3ccccc32)c(=O)c2cc(S(=O)(=O)N(C)C3CCCCC3)ccc21	inconclusive: 18.4 µM [inhibitor, single point]
CN(CC(=O)NCc1ccncc1)S(=O)(=O)c1ccc(Br)cc1	inconclusive: 1.58 µM [activator, single point]
Cc1ccsc1CN(C(=O)c1oc2ccc(Br)cc2c1C)C1CCS(=O)(=O)C1 (configuration not stated)	inconclusive: 7.08 µM [inhibitor, partial curve]
COc1nc(-c2ccccc2)nnc1-c1ccccc1	inconclusive: 12.6 µM [inhibitor, single point]
Cc1cc(C)nc(SCc2nnc(SCc3ccccc3Cl)o2)n1	inconclusive: 16.4 µM [inhibitor, partial curve]
CSc1cccc(N2CC(C(=O)NCCC3=CCCCC3)CC2=O)c1 (configuration not stated)	inconclusive: 12.6 µM [activator, partial curve, poor fit]
O=C(NC1CCCCC1)N1CCN(c2ccc(Cl)cc2)CC1	inconclusive: 1.12 µM [activator, partial curve, poor fit]
Cc1cccc(-n2ncc(C(=O)N3CCN(c4ccc(C)cc4C)CC3)c2C2CCN(C(=O)OC(C)(C)C)CC2)c1	inconclusive: 2.82 µM [inhibitor, partial curve, poor fit]
Cc1cc(N2CCN(C)CC2)nc2ccc(NC(=O)Nc3cccc(Cl)c3)cc12	inconclusive: 1.58 µM [activator, partial curve, poor fit]
CCc1ccc(N(CC(=O)NCc2ccc(OC)cc2)C(=O)CCC(=O)Nc2ccccn2)cc1	inconclusive: 1.12 µM [inhibitor, full curve, poor fit]
CN(CC(=O)Nc1ccccc1Br)C(=O)CN1CCN(Cc2cccc(Cl)c2)CC1	inconclusive: 35.5 µM [inhibitor, single point]
CSc1sc(C(=O)N2CCCCC2)c(-c2cccs2)c1C#N	inactive
COc1ccc(Cl)cc1NC(=O)CN1C(=O)C(C)(C)c2cc(S(=O)(=O)N3CCCCC3)ccc21	inconclusive: 35.5 µM [inhibitor, single point]
Cc1ccc(N2CC(C(=O)NC(C)CCc3ccccc3)CC2=O)cc1 (configuration not stated)	inactive
CC(C)C1C(=O)Nc2ccc(S(=O)(=O)NCCc3ccc(Cl)cc3)cc21 (configuration not stated)	inactive

SMILES	Potency
O=C(COC(=O)Cc1c(F)cccc1Cl)NC(=O)Nc1ccccc1F	inactive
O=C(N/N=C/c1sc(N2CCOCC2)nc1-c1ccccc1)c1cccc(S(=O)(=O)N2CCCC2)c1	inconclusive: 0.631 µM [inhibitor, full curve, poor fit]
CCOC(=O)c1sc2ccccc2c1S(=O)(=O)N1CCN(c2cccc(C)c2)C(C)C1 (configuration not stated)	inconclusive: 1 µM [inhibitor, partial curve, poor fit]
Cc1cccc(NC(=O)CN2C(=O)N/C(=C\c3ccccc3OCc3ccc(C(=O)O)cc3)C2=O)c1	inconclusive: 2.06 µM [inhibitor, partial curve, poor fit]
O=C(Nc1nc(-c2cccs2)cs1)C1=COCCO1	inconclusive: 1.78 µM [activator, partial curve, poor fit]
O=C(Cn1c(=O)nc(-c2ccccc2)c2cc(Cl)ccc21)N1CCN(c2ccccc2F)CC1	inconclusive: 1.12 µM [inhibitor, partial curve, poor fit]
N/C(=N\OC(=O)c1ccc2c(c1)OCO2)c1cccc([N+](=O)[O-])c1	inactive
CCOC(=O)N1CCN(C(=O)CSCC(=O)N=c2sc3ccccc3n2C)CC1	inconclusive: 11.2 µM [inhibitor, partial curve]
Cc1c(C(=O)OCC(=O)c2ccc3c(c2)OCCO3)oc2ccccc12	inactive
Cc1ccc(CNC(=O)CCCn2c(=O)c3sccc3n(CC(=O)Nc3c(C)cccc3C)c2=O)cc1	inconclusive: 22.4 µM [inhibitor, single point]
Cc1cc(-c2[nH]nc3c2C(c2ccc(Cl)cc2)C(C#N)=C(N)O3)c(C)s1 (configuration not stated)	inconclusive: 10 µM [activator, partial curve]
O=C(NNC(=O)c1ccccc1F)c1cccc(Cl)c1	inactive
O=C(COC(=O)c1ccc(S(=O)(=O)NCc2ccco2)cc1)c1ccccc1	inactive
CCC1SC2=NC(C)=C(C(=O)OCC(C)C)C(/C=C/c3ccccc3OC)N2C1=O (configuration not stated)	inactive
CCCCC(=O)NS(=O)(=O)c1ccc(N=NN(CC)CC)cc1	inconclusive: 5.01 µM [activator, single point]
O=C(NCCN1CCN(c2cccc(Cl)c2)CC1)Nc1ccccc1C(F)(F)F	inactive
O=C(COc1ccc2ccc(=O)oc2c1)Nc1ccc2c(c1)OCCO2	inactive
CC(OC(=O)CNC(=O)COc1ccccc1)C(=O)N(C)Cc1ccccc1 (configuration not stated)	inconclusive: 0.447 µM [activator, partial curve, poor fit]
O=C1C2CCCN2C(c2ccccc2)N1c1ccc(Cl)cc1 (configuration not stated)	inconclusive: 23.1 µM [inhibitor, single point]
Cc1ccc(C(=O)CN2/C(=C(\O)c3ccccc3)C(=O)c3ccccc3S2(=O)=O)c(C)c1	active: 18.3 µM
O=C(c1cccc(Cl)c1)N1CCN(C(=O)c2ccccc2F)CC1	inconclusive: 1.26 µM [activator, single point]
CCOc1cc(N2CCOCC2)c(OCC)cc1NC(=O)c1cnccn1	inconclusive: 10 µM [inhibitor, partial curve]
CC1(C)CC(=O)c2cc(NC(=O)c3ccc(F)cc3)c(=O)oc2C1	inconclusive: 1.26 µM [inhibitor, single point]

SMILES	Potency
O=C(CCC(=O)N1CCN(S(=O)(=O)c2ccc([N+](=O)[O-])cc2)CC1)N1CCOCC1	inactive
CSc1nc(-c2ccco2)nn1C(=O)c1ccc(C)cc1	inconclusive: 25.9 µM [activator, partial curve, poor fit]
O=C(CSc1ccccc1)Nc1ccc(C(=O)Nc2ccc(O)cc2)cc1	inconclusive: 10 µM [inhibitor, partial curve, poor fit]
Cc1cc(=O)n(CCO)c(O)c1C#N	inactive
Cc1nc(C)c(NC(=O)N2CCc3ccccc32)cc1NC(=O)N1CCc2ccccc21	inactive
O=C(c1ccc2c(c1)OCO2)N1CCN(c2ccc(Cl)cc2)CC1	inconclusive: 1.64 µM [inhibitor, partial curve, poor fit]
CN(C)S(=O)(=O)c1cccc(C(=O)Nc2ccc3c(c2)CCC3)c1	inconclusive: 2 µM [inhibitor, full curve, poor fit]
Cc1ccc(Cc2cc(-c3ccc(C)cc3)n[nH]c2=O)cc1	inconclusive: 0.282 µM [inhibitor, full curve, poor fit]
O=C1CCC(C(=O)N2CCC(CO)CC2)CN1Cc1ccc(Cl)cc1 (configuration not stated)	inactive
O=C(Nc1ccc2[nH]ncc2c1)C1CCC1	inconclusive: 1.26 µM [activator, single point]
CCCOc1ccc(/C=N/NC(=S)Nc2ccccc2[N+](=O)[O-])c(O)c1	active: 8.2 µM
Cc1cccc(-c2nnn3c2nc(NCc2ccc4c(c2)OCO4)c2ccccc23)c1	inactive
CCOC(=O)C1=C(C)C2C3C(=O)N(c4ccc(C)cc4C)C(=O)C3C1(C)C1C(=O)N(c3ccc(C)cc3C)C(=O)C21 (configuration not stated)	inactive
CCCn1nnc(NC(=O)c2ccccc2Br)n1	inactive
Oc1ccc(Nc2nc(NCC3CCCO3)c3ccccc3n2)cc1 (configuration not stated)	inconclusive: 29.1 µM [inhibitor, single point]
CC1CCCCN1C(=O)COC(=O)Cc1c[nH]c2ccccc12 (configuration not stated)	inconclusive: 0.501 µM [inhibitor, partial curve, poor fit]
C=CCNC(=O)c1oc2ccc(S(=O)(=O)N(CC)CC)cc2c1C	inconclusive: 23.1 µM [inhibitor, single point]
COc1ccc(N2C(=O)CC(SC(C)C)C2=O)cc1 (configuration not stated)	inconclusive: 11.2 µM [activator, partial curve, poor fit]
CN(C)S(=O)(=O)N1CCN(C(=O)N2CCCCC2)CC1	inactive
COc1cccc(-c2cc3nc4c(c(NCC(C)(C)CN(C)C)n3n2)CCCC4)c1	inconclusive: 35.5 µM [inhibitor, single point]
CC(C)COc1ccc(C(=O)N2CCCCC2CCN2CCCCC2)cc1 (configuration not stated)	inconclusive: 5.62 µM [inhibitor, partial curve]

Quoted at random: 3 compounds from above.
SMILES	Potency
CN(C)S(=O)(=O)c1cccc(C(=O)Nc2ccc3c(c2)CCC3)c1	inconclusive: 2 µM [inhibitor, full curve, poor fit]
COc1cccc(-c2cc3nc4c(c(NCC(C)(C)CN(C)C)n3n2)CCCC4)c1	inconclusive: 35.5 µM [inhibitor, single point]
Cc1cc(=O)n(CCO)c(O)c1C#N	inactive

Reprinted from the listing (two entries):
SMILES	Potency
Cc1ccc(C(=O)CN2/C(=C(\O)c3ccccc3)C(=O)c3ccccc3S2(=O)=O)c(C)c1	active: 18.3 µM
O=C(c1cccc(Cl)c1)N1CCN(C(=O)c2ccccc2F)CC1	inconclusive: 1.26 µM [activator, single point]
